For at least one entry, the source does not settle the construct or the ends of the probe. For some assays here: Negatives hold for the conditions tested.
Experiments:
GST = GST (UniProt P08515); assay: EMSA; settings: Chemiluminescent EMSA kit (Beyotime GS009), biotin probes, 6% non-denaturing polyacrylamide gel; pH and temperature not stated; recombinant protein; protein details: GST
[1] = test system: GST-OsPIL11 (Oryza sativa L.); assay: EMSA; settings: 10- and 20-fold unlabeled probe reduced the shift (Fig. 5e); Chemiluminescent EMSA kit (Beyotime GS009), biotin probes, 6% non-denaturing polyacrylamide gel; pH and temperature not stated; recombinant protein; protein details: GST (pGEX-4T-1), N-terminal

Chains of the proteins cited; added tags and fusions are not shown.
UniProt P08515, whole entry: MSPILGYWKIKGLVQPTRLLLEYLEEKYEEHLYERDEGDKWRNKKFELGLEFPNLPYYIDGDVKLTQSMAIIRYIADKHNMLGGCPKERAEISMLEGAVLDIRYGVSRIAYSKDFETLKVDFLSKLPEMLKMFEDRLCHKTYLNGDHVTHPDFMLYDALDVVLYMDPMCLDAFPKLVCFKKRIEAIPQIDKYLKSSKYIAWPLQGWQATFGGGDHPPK

“GCCACGCTTTCCACGCACATGTAGAAGACCATGCAGGCAACA (double strand) [YGL3 promoter PBE-box-1 probe]”: no binding (GST); binds [1].
